# Measured values from PubChem BioAssay AID493014 (National Center for Advancing Translational Sciences (NCATS), 2011).
# The whole screen tested about 340,000 compounds, of which about 170 (0.05%) were called active. This list was built around the results that the source calls inconclusive (neither active nor inactive); the mix of calls is not that of the screen. Calls come from the whole dose curve; as a rule, active = well fitted inhibition curve with a large enough effect in the signal ratio, with a control signal flat (not every such curve was filed as active); inconclusive = small, poorly fitted or top-dose-only effect, or effect the other way, or a change in a side signal; inactive = flat fitted curve, though single readings scatter; the % refers to the signal ratio. A potency beside an inconclusive call is a rough fit, not a confirmed value.
# Experiment: qHTS Assay to Find Inhibitors of Chronic Active B-Cell Receptor Signaling;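 for activity change, negative = inhibition: plate controls were basal doxycycline-induced cells for no effect and cells given 10 µM MG132 for full effect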
# Conditions: ABC-DLBCL IkBa-CBG/CBR reporter, luminescence ratio (green luciferase fused to IkBa over red control in TMD8 lymphoma cells), 4 h; activity change, negative = inhibition: at 46.1 µM (top of the series) unless noted
# In short: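 TMD8 ABC-DLBCL cells carrying doxycycline-inducible green luciferase fused to IkappaBalpha plus unfused red luciferase were exposed to compounds (up to 46 uM) for 4 hrs at 37C. Activity came from the overlap-corrected green/red luminescence ratio.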
# Potency is the fitted concentration of half-maximal effect.
Compound,"activity change, negative = inhibition",Potency
CC(C)Oc1cccc(C(=O)NC2=NCCS2)c1,inconclusive: 8.13%,–
Cc1cccc(CC(Cc2nc3ccccc3[nH]2)c2nc3ccccc3[nH]2)c1 (centres undefined),inconclusive: 0.855%,–
O=c1c2ccccc2nc(/C=C/c2ccc([N+](=O)[O-])cc2)n1CCCO,inactive: -6.59%,–
CCOc1ccc(N2C(=O)c3cccnc3C2Nc2ccc(Cl)cc2)cc1 (centres undefined),inactive: -23%,–
O=C(CSc1c2c(nc3ccc(Cl)cc13)CCCC2)NCc1ccco1,inconclusive: -23.7%,–
O=C(CSc1nnc(-c2ccc(O)cc2)o1)Nc1ccccc1,–,"inconclusive: 35.5 µM [falling, partial curve]"
O=S(=O)(c1ccc(F)cc1)n1ccc(-c2cccc(OCc3c(F)cccc3Cl)c2)n1,inactive: 15.6%,–
Cc1ccc(C(=O)N/N=C/C=C/c2ccccc2)o1,–,"inconclusive: 5.62 µM [rising, single point]"
Cc1cc(C(=O)NCC(=O)OC(C(=O)Nc2cc(C(F)(F)F)ccc2Cl)c2ccccc2)ccc1[N+](=O)[O-] (centres undefined),–,"inconclusive: 4.11 µM [rising, full curve, poor fit]"
O=C(NN=Cc1ccccc1Cl)c1ccc(-n2cnnn2)cc1,–,"inconclusive: 18.4 µM [falling, single point]"
Cn1c(SCC(=O)N2CCCc3ccccc32)nc2cccnc21,inconclusive: 19%,–
CC1CCCCN1C(=O)c1cc(-c2ccc(Cl)c(Cl)c2)on1 (centres undefined),inconclusive: 13%,–
O=c1c2ccccc2nc(SCc2nc3ccccc3s2)n1Cc1ccco1,inactive: 3.42%,–
Cc1cc(NC(=O)c2ccccc2)nc(C)n1,inconclusive: 2.28%,–
Cc1oc(S(=O)(=O)N2CCCC2)cc1C(=O)Nc1ccc(F)cc1,–,"inconclusive: 20 µM [rising, partial curve, poor fit]"
Cc1ccc(C2=NN(Cc3nnc(-c4ccccc4)o3)C(=O)SC2)cc1,inconclusive: -19.4%,–
CS(=O)(=O)Nc1nc2n(n1)C(c1ccc(F)cc1)CC(c1ccccc1)N2 (centres undefined),inconclusive: 16.9%,–
O=c1c2[nH]c3ccc(Br)cc3c2ncn1Cc1ccncc1,inactive: 18.8%,–
O=S(=O)(c1ccc(Cl)cc1)N1CCN(CCc2ccncc2)CC1,inactive: 27.4%,–
O=C1SC(SCc2ccccc2Cl)=N/C1=C\c1ccc(C(=O)O)cc1,–,"inconclusive: 35.5 µM [falling, single point]"
CN1CCN(CC(=O)Nc2ccccc2Sc2ccccc2)CC1,inactive: -18.1%,–
Oc1ccc(-c2nc3cnccn3c2Nc2ccc3c(c2)OCCO3)cc1,–,active: 17.8 µM
Cc1cccc(N2C(=O)C(Cl)=C(Nc3c(C)n(C)n(-c4ccccc4)c3=O)C2=O)c1C,inconclusive: 14.9%,–
Cc1cc(C)c(OCC(=O)Nc2nnc(C3CC3)s2)c(C)c1,inconclusive: 1.63%,–
Cc1cccc(-n2ncc3c(NCc4ccc5c(c4)OCO5)ncnc32)c1,inconclusive: 6.67%,–
CCCn1c(N)c(C(c2ccc(C(=O)OC)cc2)N2CCN(c3ccccc3)CC2)c(=O)[nH]c1=O (centres undefined),inconclusive: -4.25%,–
COc1ccccc1/C=C/C(=O)Nc1nc(N)n(-c2ccccc2)n1,–,"inconclusive: 20 µM [falling, partial curve, poor fit]"

Compound,"activity change, negative = inhibition",Potency
CCNC(=O)c1oc2c(c1C)C(=O)CC(C)(C)C2,–,"inconclusive: 4.11 µM [rising, full curve, poor fit]"
COc1ccc(CN(C)CC(=O)NC(=O)Nc2ccccc2F)cc1,inconclusive: -0.849%,–
C=CCOC(=O)/C=C/C(=O)NC(N)=O,inconclusive: 8.87%,–
O=C(c1ccc(Cn2c(=S)[nH]c3ccc(Br)cc3c2=O)cc1)N1CCN(C2CCCCC2)CC1,inconclusive: -17.1%,–
Cn1c(=O)n(C)c2cc(CNCc3ccc(C(=O)O)cc3)ccc21,inactive: -6.9%,–
CCOC(=O)c1sc(S(C)(=O)=O)c2c1CC(C)(C)C/C2=N/O,inconclusive: 8.04%,–
O=C(CN1CCN(Cc2ccc(Cl)cc2)CC1)N/N=C/c1c[nH]c2ccccc12,inconclusive: -18.2%,–
CSCCC(NC(N)=O)C(=O)NCC1CCCCC1 (centres undefined),inconclusive: 4.32%,–
CC1(CC(=O)Nc2ccccc2)NC(=S)N(c2ccccc2)N1 (centres undefined),–,"inconclusive: 31.6 µM [falling, partial curve]"
O=C(CSc1nnnn1C1CCCC1)Nc1ccccc1F,–,"inconclusive: 12.6 µM [falling, partial curve]"
COc1ccc(CNc2nc(NC(C)=O)nn2-c2ccccc2)cc1,inactive: 1.05%,–
Cc1cc(C(=O)OCC(=O)Nc2nc(-c3ccccc3)cs2)c(C)o1,inconclusive: 6.48%,–
CCCc1cc(NCCCO)n2c(nc3ccccc32)c1C#N,inconclusive: 19%,–
CC(C)C(NS(=O)(=O)c1ccccc1)C(=O)OCC(=O)NNC(=O)c1ccccc1 (centres undefined),–,"inconclusive: 32.6 µM [falling, partial curve, poor fit]"
O=C(NNc1ccccc1)C(CCO)C(=O)NNc1ccccc1,inactive: 0.98%,–
CC(O)CNc1nc(Cl)c(C#N)s1 (centres undefined),inactive: 0.0458%,–
O=C(Nc1cc2c3c(c1)CC(=O)N3CCC2)c1ccco1,inconclusive: -13.8%,–
Cc1ccc(C)c(OCCC(=O)NNC(=O)c2cc(C)oc2C)c1,inconclusive: -13.8%,–
CCSc1nc2sc3c(c2c(=O)n1-c1ccccc1)CCN(C(C)C)C3,–,"inconclusive: 14.1 µM [rising, partial curve, poor fit]"
O=C(NCc1cccnc1)c1ccc(COc2ccc3c(c2)CCC3)o1,–,"inconclusive: 16.4 µM [falling, partial curve, poor fit]"
Fc1cccc2ncnc(OCc3ccccc3)c12,inconclusive: -9.95%,–
Cc1ccc(S(=O)(=O)N/N=C2/CC(=O)CC(C)(C)C2)cc1[N+](=O)[O-],inconclusive: 5.85%,–
CCOC(=O)Cc1csc(CC(N)=O)n1,–,"inconclusive: 3.98 µM [falling, full curve, poor fit]"
Cc1ccc(NS(=O)(=O)c2ccc(C(=O)N3CCCC(C(F)(F)F)C3)cc2)cc1 (centres undefined),inconclusive: -12.9%,–
CC1(C)C(=O)Nc2ccccc2N1C(=O)COC(=O)c1ccc(Cl)c(S(=O)(=O)NCc2ccccc2)c1,–,"inconclusive: 20.6 µM [falling, partial curve, poor fit]"
C=CCNc1ncnc2c1cnn2-c1ccc(OC)cc1,inconclusive: -19.3%,–
Cn1c(SCC(=O)c2ccccc2)nnc1-c1cccc(N)c1,–,"inconclusive: 20.6 µM [falling, partial curve]"

Compound,"activity change, negative = inhibition",Potency
Cc1ccccc1C(=O)N1CCN(c2ccc(NC(=O)c3cccnc3)cc2)CC1,–,"inconclusive: 22.4 µM [falling, single point]"
CC(=O)c1cccc(NC(=O)c2ccc3c(c2)CCN3S(=O)(=O)c2ccccc2)c1,–,"inconclusive: 11.2 µM [falling, partial curve]"
Cc1ccccc1C(=O)NNC(=S)NC(=O)c1ccccc1,–,"inconclusive: 23.1 µM [falling, single point]"
COc1ccc(NC(=O)C/C(C)=N/NC(=O)C(=O)Nc2cccc(Cl)c2C)c(OC)c1,–,"inconclusive: 5.01 µM [falling, full curve]"
COc1ccc2nc(C)cc(SCC(=O)N/N=C/c3ccc(O)c(O)c3)c2c1,inconclusive: -7.16%,–
CCOC(=O)c1ccc(Nc2nc(=O)c3cccnc3s2)cc1,–,"inconclusive: 3.98 µM [falling, partial curve, poor fit]"
CCn1cc([N+](=O)[O-])c(C(=O)Nc2c(C)nn(Cc3c(F)c(F)c(F)c(F)c3F)c2C)n1,inactive: 3.19%,–
CN(C(=O)c1ccccn1)c1nnc(-c2ccccn2)s1,inconclusive: -19.2%,–
CC(=O)Nc1ccc(C(=O)OCc2ccc(F)cc2)cc1,inconclusive: -10.2%,–
O=S(=O)(O)c1nc2ccccc2n1Cc1ccccc1,inconclusive: 6.13%,–
CCOC(=O)c1nnc(-c2cccs2)nc1Oc1ccccc1C(=O)OC,–,"inconclusive: 14.6 µM [falling, partial curve, poor fit]"
COCCNC(=O)c1cc2c3ccccc3n(C)c2s1,inconclusive: -0.561%,–
CCn1ncc(CN2CCCC(C(=O)Nc3cccc(-c4cc5ccccc5[nH]4)c3)C2)c1C (centres undefined),inconclusive: -13.4%,–
COc1ccc(NC(=O)/C=C/c2ccco2)cn1,–,"inconclusive: 17.8 µM [falling, partial curve, poor fit]"
CCN1CCN(C(=O)c2cc3cc([N+](=O)[O-])ccc3oc2=O)CC1,inactive: 0.446%,–
CC(C)c1ccc(O)c(N)c1,–,"inconclusive: 16.4 µM [falling, single point]"
COc1ccc(CCNC(=O)COC(=O)Cn2cnc3ccccc3c2=O)cc1,inactive: 4.63%,–
Cc1cc(-n2c(C)cc(C(=O)CSc3nncn3C)c2C)no1,inconclusive: 4.73%,–
C/C(=N\NC(=O)c1cc(-c2ccccc2C)nc2ccccc12)c1cccnc1,inactive: 2.49%,–
CC[C@H](C)[C@@H](NC(=O)O[C@@H]1C(=O)c2cc(Br)ccc2O[C@H]1c1ccc2c(c1)OCO2)C(=O)OC,inconclusive: 8.13%,–
CCC(C)Nc1cc(C)c(C#N)c2nc3ccccc3n12 (centres undefined),inconclusive: 10.1%,–
COc1ccccc1/C=C/C=N/n1c(-c2ccc(F)cc2)n[nH]c1=S,–,"inconclusive: 2.82 µM [falling, partial curve, poor fit]"
Nc1ccc(-c2nnn(Cc3ccccc3F)n2)cc1,inconclusive: 1.18%,–
Cc1ccc(C(C)C)c(OCC(=O)Nc2ccc3c(c2)nc(CCN2CCCCC2)n3C)c1,–,"inconclusive: 35.5 µM [falling, single point]"
CCOc1c(Br)cc(C2NS(=O)(=O)N=C3CCCCCN32)cc1OC (centres undefined),–,"inconclusive: 35.5 µM [falling, partial curve, poor fit]"

# 4 compounds picked at random from those above:
Compound,"activity change, negative = inhibition",Potency
Cc1ccc(C(C)C)c(OCC(=O)Nc2ccc3c(c2)nc(CCN2CCCCC2)n3C)c1,–,"inconclusive: 35.5 µM [falling, single point]"
COc1ccc(CCNC(=O)COC(=O)Cn2cnc3ccccc3c2=O)cc1,inactive: 4.63%,–
COc1ccc(NC(=O)/C=C/c2ccco2)cn1,–,"inconclusive: 17.8 µM [falling, partial curve, poor fit]"
CCOC(=O)c1ccc(Nc2nc(=O)c3cccnc3s2)cc1,–,"inconclusive: 3.98 µM [falling, partial curve, poor fit]"
